Laboratory results: PubChem BioAssay AID1259254 (NCATS, 2017)
Assay: 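Finding genes that stop cells copying their DNA twice in one cycle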 (primary screen). Cell system: human HCT116 colorectal cancer cells. Knock-down reagent: single siRNA against human genes. Time to read-out: 3 days. Detection: 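Nuclei stained with Hoechst and imaged; cell-cycle phase assigned by DNA content; G2 share scaled per plate, non-targeting siRNA 0%, GMNN siRNA 100%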. Reading the numbers: G2 robust z-score and G2 cells, % of GMNN control: higher = more G2 cells, more excess DNA replication. Active means: 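An siRNA counts as active if its G2 robust z-score lies at least 5 MADs above the screen median; here such calls match roughly 38% of GMNN control or more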.
Shown is an unselected part of about 59,000 deposited reagents. About 1,550 of them (2.6%) were called active. 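G2 share is only a proxy for re-replication; each gene was hit by three separate siRNAs, and active genes were retested.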 Reagents against one gene are numbered here. Further read-outs or replicates are left out here. Not given: the amount of reagent.

For STAT3 #1, what was measured?
G2 robust z-score: 0.151; G2 cells, % of GMNN control: 4.03; outcome: inactive

With STAT3 #2, what was measured?
G2 robust z-score: 1.02; G2 cells, % of GMNN control: 10.1; outcome: inactive

What is on record for STAT3 #3?
G2 robust z-score: 1.84; G2 cells, % of GMNN control: 15.9; outcome: inactive

With TTC13 #1, how do the results read?
G2 robust z-score: 0.42; G2 cells, % of GMNN control: 5.92; outcome: inactive

With TTC13 #2, what does the deposit list?
G2 robust z-score: 0.725; G2 cells, % of GMNN control: 8.07; outcome: inactive

For TTC13 #3, what does the deposit list?
G2 robust z-score: 2.11; G2 cells, % of GMNN control: 17.8; outcome: inactive

How did the screen score LRFN4 #1?
G2 robust z-score: 0.247; G2 cells, % of GMNN control: 4.71; outcome: inactive

How did the screen score LRFN4 #2?
G2 robust z-score: 0.0359; G2 cells, % of GMNN control: 3.22; outcome: inactive

For LRFN4 #3, what does the deposit list?
G2 robust z-score: -1.02; G2 cells, % of GMNN control: -4.23; outcome: inactive

For RAB42 #1, how do the results read?
G2 robust z-score: 0.256; G2 cells, % of GMNN control: 4.77; outcome: inactive

What did the screen give for RAB42 #2?
G2 robust z-score: 0.773; G2 cells, % of GMNN control: 8.4; outcome: inactive

What is on record for RAB42 #3?
G2 robust z-score: -0.573; G2 cells, % of GMNN control: -1.06; outcome: inactive

For PROX1 #1, what was measured?
G2 robust z-score: 1.89; G2 cells, % of GMNN control: 16.3; outcome: inactive

What did the screen give for PROX1 #2?
G2 robust z-score: -0.558; G2 cells, % of GMNN control: -0.956; outcome: inactive

With PROX1 #3, how do the results read?
G2 robust z-score: 0.399; G2 cells, % of GMNN control: 5.78; outcome: inactive

For PLPP7 #1, what was measured?
G2 robust z-score: 0.76; G2 cells, % of GMNN control: 8.31; outcome: inactive

How did the screen score PLPP7 #2?
G2 robust z-score: 0.118; G2 cells, % of GMNN control: 3.8; outcome: inactive

For PLPP7 #3, what does the deposit list?
G2 robust z-score: -0.484; G2 cells, % of GMNN control: -0.439; outcome: inactive

Records above whose gene name starts with R or r (3):
RAB42 #1 — G2 robust z-score: 0.256; G2 cells, % of GMNN control: 4.77; outcome: inactive
RAB42 #2 — G2 robust z-score: 0.773; G2 cells, % of GMNN control: 8.4; outcome: inactive
RAB42 #3 — G2 robust z-score: -0.573; G2 cells, % of GMNN control: -1.06; outcome: inactive
